Assay results as given in patent publication US7037534B2 (priority 2001, dated 2006).
For at least one compound, name, drawing or mass did not settle the structure.

System: HIV-1 Δtat/Δrev
Assay: HIV-1 Δtat/Δrev stocks pre-treated with hypericin in light or dark, then infection of CEM-TART cells, p24 in culture
Format: cell-based
Conditions: compared with untreated virus

SMILES: Cc1cc(O)c2c(=O)c3c(O)cc(O)c4c5c(O)cc(O)c6c(=O)c7c(O)cc(C)c8c1c2c(c34)c(c78)c65 [hypericin]
- growth of virus stock treated with hypericin in the dark: grew similarly to untreated virus
